Literature values as cited in patent US20250000804A1, “COMPOSITIONS AND METHODS FOR TREATING METABOLIC DISORDERS” (Anji Pharmaceuticals Inc., priority 2013, published 2025).
At least one compound was matched to its structure with a doubt left.

Test system: fasting blood glucose, HbA1c
Settings: metformin monotherapy

SMILES: CN(C)C(=N)N=C(N)N [Metformin, dimethylbiguanide]
- lowering of HbA1c levels: approximately 1.5%
- lowering of fasting blood glucose: 20%
